Reference: paper PMC5102030
These are yes or no findings as the source states them, for the method shown. Binding seen in cells or lysates may run through a third protein. Some binding calls cover weakened binding; strength is not graded here.

Chains of the proteins cited; added tags and fusions are not shown.
UniProt Q7Z6Z7: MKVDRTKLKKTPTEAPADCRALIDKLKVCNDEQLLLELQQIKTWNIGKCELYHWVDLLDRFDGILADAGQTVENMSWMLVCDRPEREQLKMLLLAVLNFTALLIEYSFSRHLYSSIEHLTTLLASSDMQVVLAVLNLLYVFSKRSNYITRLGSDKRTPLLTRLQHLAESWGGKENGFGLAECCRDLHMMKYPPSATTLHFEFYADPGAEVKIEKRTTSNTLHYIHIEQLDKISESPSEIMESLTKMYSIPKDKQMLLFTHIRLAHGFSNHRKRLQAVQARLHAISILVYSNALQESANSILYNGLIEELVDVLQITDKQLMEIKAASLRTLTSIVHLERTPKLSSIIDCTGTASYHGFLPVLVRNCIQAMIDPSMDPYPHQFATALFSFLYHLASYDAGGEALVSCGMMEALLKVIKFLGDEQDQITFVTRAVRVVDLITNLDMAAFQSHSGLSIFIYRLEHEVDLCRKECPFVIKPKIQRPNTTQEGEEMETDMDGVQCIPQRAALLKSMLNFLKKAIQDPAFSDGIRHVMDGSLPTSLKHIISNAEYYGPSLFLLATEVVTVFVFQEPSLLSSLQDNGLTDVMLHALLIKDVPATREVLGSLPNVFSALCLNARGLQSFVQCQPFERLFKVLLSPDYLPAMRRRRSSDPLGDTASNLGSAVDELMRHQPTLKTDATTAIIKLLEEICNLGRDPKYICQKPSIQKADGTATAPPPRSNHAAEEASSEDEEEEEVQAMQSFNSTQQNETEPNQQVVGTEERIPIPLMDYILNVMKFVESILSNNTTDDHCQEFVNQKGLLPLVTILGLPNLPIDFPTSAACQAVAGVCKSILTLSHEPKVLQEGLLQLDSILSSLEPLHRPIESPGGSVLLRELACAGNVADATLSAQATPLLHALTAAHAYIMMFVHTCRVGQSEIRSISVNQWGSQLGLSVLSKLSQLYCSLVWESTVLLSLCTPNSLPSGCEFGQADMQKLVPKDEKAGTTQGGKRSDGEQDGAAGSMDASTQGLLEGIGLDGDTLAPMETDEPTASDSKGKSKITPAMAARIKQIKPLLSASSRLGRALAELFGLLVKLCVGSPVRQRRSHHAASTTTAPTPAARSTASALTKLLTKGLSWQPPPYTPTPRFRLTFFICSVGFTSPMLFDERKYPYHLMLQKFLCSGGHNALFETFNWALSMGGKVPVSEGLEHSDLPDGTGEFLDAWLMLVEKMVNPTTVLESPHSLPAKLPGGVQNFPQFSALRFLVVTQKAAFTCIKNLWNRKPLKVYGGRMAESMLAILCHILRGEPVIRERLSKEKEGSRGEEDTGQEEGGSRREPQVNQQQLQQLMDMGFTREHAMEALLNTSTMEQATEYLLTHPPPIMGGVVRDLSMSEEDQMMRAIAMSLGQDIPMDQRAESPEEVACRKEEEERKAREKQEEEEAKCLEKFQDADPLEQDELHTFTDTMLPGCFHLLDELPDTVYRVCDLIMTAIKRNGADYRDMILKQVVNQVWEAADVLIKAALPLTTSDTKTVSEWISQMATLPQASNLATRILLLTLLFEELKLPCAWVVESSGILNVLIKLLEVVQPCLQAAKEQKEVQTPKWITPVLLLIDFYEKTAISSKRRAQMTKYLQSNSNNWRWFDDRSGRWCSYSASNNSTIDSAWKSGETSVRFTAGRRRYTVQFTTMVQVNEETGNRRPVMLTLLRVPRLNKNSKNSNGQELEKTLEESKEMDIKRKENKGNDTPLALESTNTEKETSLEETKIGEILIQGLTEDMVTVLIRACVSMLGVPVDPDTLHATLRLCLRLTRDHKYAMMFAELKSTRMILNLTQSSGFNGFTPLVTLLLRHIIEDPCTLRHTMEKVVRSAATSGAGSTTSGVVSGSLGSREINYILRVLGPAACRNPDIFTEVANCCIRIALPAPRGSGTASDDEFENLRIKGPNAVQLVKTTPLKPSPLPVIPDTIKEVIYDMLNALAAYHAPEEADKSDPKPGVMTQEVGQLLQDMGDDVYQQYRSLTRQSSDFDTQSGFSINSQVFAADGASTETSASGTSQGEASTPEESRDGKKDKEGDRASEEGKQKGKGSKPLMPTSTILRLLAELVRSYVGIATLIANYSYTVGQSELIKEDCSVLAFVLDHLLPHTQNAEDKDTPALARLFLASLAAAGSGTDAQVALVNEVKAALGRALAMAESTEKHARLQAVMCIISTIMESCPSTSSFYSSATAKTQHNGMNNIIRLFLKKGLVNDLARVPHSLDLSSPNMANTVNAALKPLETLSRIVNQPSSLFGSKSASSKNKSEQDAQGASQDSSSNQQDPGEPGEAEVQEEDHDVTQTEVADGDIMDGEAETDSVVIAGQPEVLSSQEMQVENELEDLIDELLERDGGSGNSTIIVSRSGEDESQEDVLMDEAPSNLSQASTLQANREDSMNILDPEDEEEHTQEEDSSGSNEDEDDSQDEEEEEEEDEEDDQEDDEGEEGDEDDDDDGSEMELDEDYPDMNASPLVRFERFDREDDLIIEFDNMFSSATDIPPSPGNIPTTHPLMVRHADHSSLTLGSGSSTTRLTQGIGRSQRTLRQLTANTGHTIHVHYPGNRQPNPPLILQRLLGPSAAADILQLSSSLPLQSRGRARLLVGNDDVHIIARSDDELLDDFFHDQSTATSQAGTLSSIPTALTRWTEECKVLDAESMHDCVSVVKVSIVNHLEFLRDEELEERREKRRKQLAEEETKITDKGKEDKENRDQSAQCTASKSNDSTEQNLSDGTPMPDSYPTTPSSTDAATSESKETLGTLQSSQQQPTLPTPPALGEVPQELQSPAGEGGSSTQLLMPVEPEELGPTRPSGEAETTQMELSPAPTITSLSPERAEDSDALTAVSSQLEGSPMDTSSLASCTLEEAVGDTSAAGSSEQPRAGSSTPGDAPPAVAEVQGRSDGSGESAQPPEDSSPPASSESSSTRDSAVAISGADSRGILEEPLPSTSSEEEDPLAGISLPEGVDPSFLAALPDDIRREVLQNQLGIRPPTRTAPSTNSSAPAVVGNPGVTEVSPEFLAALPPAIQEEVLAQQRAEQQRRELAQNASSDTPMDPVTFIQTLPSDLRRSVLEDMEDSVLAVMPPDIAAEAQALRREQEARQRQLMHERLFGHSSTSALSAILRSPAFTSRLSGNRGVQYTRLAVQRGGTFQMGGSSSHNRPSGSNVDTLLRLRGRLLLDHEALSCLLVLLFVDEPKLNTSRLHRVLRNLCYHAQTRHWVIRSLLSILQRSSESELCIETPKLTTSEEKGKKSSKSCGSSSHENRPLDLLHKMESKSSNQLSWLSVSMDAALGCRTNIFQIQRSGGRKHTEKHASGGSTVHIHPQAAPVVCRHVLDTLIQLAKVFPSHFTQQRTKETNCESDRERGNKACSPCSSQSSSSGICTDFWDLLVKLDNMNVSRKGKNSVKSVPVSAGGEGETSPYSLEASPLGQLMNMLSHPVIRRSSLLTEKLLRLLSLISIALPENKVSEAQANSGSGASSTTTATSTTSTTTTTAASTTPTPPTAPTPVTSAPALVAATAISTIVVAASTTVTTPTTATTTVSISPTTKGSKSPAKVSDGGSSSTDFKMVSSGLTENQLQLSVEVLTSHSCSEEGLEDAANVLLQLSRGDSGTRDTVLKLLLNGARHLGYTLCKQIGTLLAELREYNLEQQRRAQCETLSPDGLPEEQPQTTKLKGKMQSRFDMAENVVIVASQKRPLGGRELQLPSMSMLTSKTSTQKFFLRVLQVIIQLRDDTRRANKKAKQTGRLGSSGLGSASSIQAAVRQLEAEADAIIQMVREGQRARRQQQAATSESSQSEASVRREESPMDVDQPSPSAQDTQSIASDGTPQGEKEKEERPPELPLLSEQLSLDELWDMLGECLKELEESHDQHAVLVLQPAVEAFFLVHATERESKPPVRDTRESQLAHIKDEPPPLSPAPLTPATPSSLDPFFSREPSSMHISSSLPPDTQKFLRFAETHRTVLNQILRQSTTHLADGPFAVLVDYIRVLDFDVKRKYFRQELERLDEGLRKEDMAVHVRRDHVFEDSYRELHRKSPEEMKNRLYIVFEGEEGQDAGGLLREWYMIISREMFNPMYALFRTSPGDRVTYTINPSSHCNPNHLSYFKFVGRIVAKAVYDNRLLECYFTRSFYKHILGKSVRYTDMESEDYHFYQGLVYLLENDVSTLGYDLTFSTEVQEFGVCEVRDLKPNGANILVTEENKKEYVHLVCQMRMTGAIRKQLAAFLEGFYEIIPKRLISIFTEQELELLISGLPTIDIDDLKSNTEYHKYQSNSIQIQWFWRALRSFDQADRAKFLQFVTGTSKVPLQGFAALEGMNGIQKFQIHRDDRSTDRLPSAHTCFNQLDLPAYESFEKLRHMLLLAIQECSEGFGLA

Target: T1, Ubl4A (UniProt P11441)
T1 sequence: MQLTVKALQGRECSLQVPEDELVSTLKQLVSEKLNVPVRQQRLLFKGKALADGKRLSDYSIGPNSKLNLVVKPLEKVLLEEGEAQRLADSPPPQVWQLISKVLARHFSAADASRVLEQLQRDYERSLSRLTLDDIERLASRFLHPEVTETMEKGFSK
Test: co-IP; overexpressed substrate with endogenous HUWE1 (Supplementary Figure S5F); who was precipitated is not told

In the case of “HUWE1 (HECT, UBA and WWE domain containing 1) (from UniProt Q7Z6Z7 1-4374) (enzyme)”, the binding is reported as “binds”.
